The list shows a part of the results. These are further read-outs of the screen, such as a control signal, another cell line or another target. No call is given for them. Most of these compounds were active or inconclusive in the main read-out, so they are no random draw. The note in brackets gives the kind of curve behind each potency; many fits are weak.
Test: qHTS Assay to Find Inhibitors of Chronic Active B-Cell Receptor Signaling
Conditions: ABC-DLBCL IkBa-CBG/CBR reporter, luminescence ratio (green luciferase fused to IkBa over red control in TMD8 lymphoma cells), 4 h
Outline: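 Concentration-response series (up to 46 uM) were applied to TMD8 dual-reporter cells for 4 h at 37C with doxycycline. Green/red ratio, after filter-overlap correction, defined %Activity; red signal alone was normalised to basal cells and zero luminescence.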

[1] = measured here: CBR red luminescence, cell number
[2] = measured here: IkBa-CBG green luminescence

SMILES	AC50 [1]	AC50 [2]
C/C(=N\NC(=O)CNc1cccc(C(F)(F)F)c1)c1cccs1	17.8 µM [rising, partial curve, poor fit]	
CC(C)c1oc(=O)cc2c1[C@@H](O)[C@H]1OC(=O)[C@@]3(C)C[C@@H](O)[C@@H](O)[C@@]2(C)C13 (stereo partly drawn)	20.6 µM [falling, partial curve]	
Nc1c(C(=O)NCc2ccco2)c2nc3ccccc3nc2n1Cc1ccc(F)cc1	8.2 µM [falling, partial curve, poor fit]	
CNC(=O)Oc1ccc(-c2cn3cc(C)ccc3n2)cc1	18.4 µM [falling, partial curve]	
CC(C)n1c(=O)c(C=Nc2ccc(S(N)(=O)=O)cc2)c(O)n(Cc2ccco2)c1=O	16.4 µM [falling, single point]	
CCN(CC)C(=O)c1ccc(NC(=O)CCCSc2ccccc2)cc1	5.01 µM [rising, partial curve, poor fit]	
COC(=O)C1=C(c2ccc(F)cc2OCc2ccccc2)C[C@@H]2CC[C@H]1N2C(=O)NCc1ccccc1Cl	16.4 µM [falling, single point]	
Brc1ccc(CN2CCNCC2)s1	13 µM [rising, partial curve, poor fit]	
CCCCn1c(=O)c(C(=O)NCc2ccncc2)c(O)c2ccccc21	12.6 µM [falling, single point]	
Cc1nc2c(=O)n(C)c(=O)nc-2n(C)n1	2.06 µM [falling, full curve]	7.31 µM [rising, partial curve, poor fit]
CN1C(=O)c2ccccc2NC(=O)[C@]12O[C@@H]2c1ccccc1	35.5 µM [rising, single point]	
CCn1cc(CN2CCCC(C(=O)c3sccc3C)C2)cn1 (stereo not drawn)	0.0891 µM [rising, full curve, poor fit]	
CC1CN=C(NCc2ccccc2Cl)S1 (stereo not drawn)	14.1 µM [falling, single point]	
COc1ccc2[nH]c(C)c(CCNCc3cn(C)c4ccccc34)c2c1	23.1 µM [falling, partial curve, poor fit]	
COc1ccc2c(c1)c(C(=O)O)c(C)n2C(C)C	8.2 µM [rising, partial curve]	
Cc1ccc(CN2CC3CC(C2)c2cccc(=O)n2C3)cc1 (stereo not drawn)	9.2 µM [falling, partial curve, poor fit]	
Cc1ccc(N2C(=O)NC(=O)/C(=C\c3cnc(-c4ccccc4)nc3)C2=O)cc1	0.92 µM [rising, partial curve]	
O=C1NC(=S)NC(=O)C1=Cc1cccn1-c1ccc(O)cc1	22.4 µM [rising, partial curve]	35.5 µM [falling, single point]
O=C(c1cc(C(=O)NCc2ccccc2)c(=O)n(Cc2ccccc2)c1)c1cc(Br)ccc1O	0.164 µM [rising, full curve, poor fit]	
COc1ccc(CN2CCCC(C(=O)c3sccc3C)C2)cc1O (stereo not drawn)	35.5 µM [rising, single point]	
CCc1ccccc1OCC(=O)Nc1nc(-c2cccnc2)cs1	35.5 µM [rising, single point]	

3 compounds out of the list, arranged by molecular weight, rising.
SMILES	AC50 [1]	AC50 [2]
COc1ccc2c(c1)c(C(=O)O)c(C)n2C(C)C	8.2 µM [rising, partial curve]	
CCc1ccccc1OCC(=O)Nc1nc(-c2cccnc2)cs1	35.5 µM [rising, single point]	
CC(C)c1oc(=O)cc2c1[C@@H](O)[C@H]1OC(=O)[C@@]3(C)C[C@@H](O)[C@@H](O)[C@@]2(C)C13 (stereo partly drawn)	20.6 µM [falling, partial curve]	

Following part

SMILES	AC50 [1]	AC50 [2]
O=C(COc1ccc2ccc(=O)oc2c1)N1CCC(C(=O)O)(c2ccccc2)CC1	35.5 µM [falling, single point]	
CCN(CC)CCCN=Cc1c(O)n(Cc2ccc(F)cc2)c(=O)[nH]c1=O	0.251 µM [rising, full curve, poor fit]	
C=C(c1ccccc1)P(=O)(O)O	29.1 µM [rising, single point]	
CN1C2CCC1CC(OC(=O)CCN1CCCC1)C2 (stereo not drawn)	23.1 µM [rising, partial curve, poor fit]	
O=C(Nc1ccc(Cl)cc1)N1CC2CC(C1)c1cccc(=O)n1C2 (stereo not drawn)	0.631 µM [rising, partial curve]	
COc1ccc(CNCCc2c[nH]c3ccccc23)c(OC)c1C	14.1 µM [falling, single point]	
COc1cc2c(cc1OC)-c1c(OC)c(OC)cc3c1[C@H](C2)N(C)CC3	14.6 µM [rising, partial curve, poor fit]	
c1cc(C2N3CCCN2CC3)ccn1 (stereo not drawn)	5.62 µM [rising, single point]	
O=C1C(=O)c2ccccc2-c2ccccc21	0.562 µM [falling, full curve]	0.891 µM [rising, full curve]
O=C(Cn1c(=O)oc2cc(S(=O)(=O)NCc3ccccc3)ccc21)Nc1ccc(F)c(Cl)c1	8.91 µM [falling, partial curve, poor fit]	
C=C1C(=O)O[C@@H]2C[C@@H](C)[C@@H]3C=CC(=O)[C@@]3(C)[C@@H](OC(=O)CC(=O)O[C@H]3[C@@H]4C(=C)C(=O)O[C@@H]4C[C@@H](C)[C@@H]4C=CC(=O)[C@]43C)[C@H]12	1.58 µM [falling, full curve]	
O=c1c2ccccc2nc(-c2ccco2)n1-c1ccncc1	1.58 µM [falling, partial curve, poor fit]	
CNCC[C@H](Oc1ccc(C(F)(F)F)cc1)c1ccccc1	23.1 µM [falling, single point]	
CCCc1cnc(NCCNCC(O)COc2ccc(Cl)c(Cl)c2)nc1 (stereo not drawn)	11.2 µM [falling, single point]	
CC(=NCc1cccnc1)c1c(O)n(C2CCCCC2)c(=O)[nH]c1=O	2.91 µM [falling, partial curve]	4.11 µM [rising, partial curve, poor fit]
CN(C)C(=S)SSC(=S)N(C)C	0.631 µM [falling, full curve, poor fit]	0.631 µM [falling, partial curve, poor fit]
COc1ccc2nc(NC(=O)CCc3nc(C4=CCN(C)CC4)no3)sc2c1	16.4 µM [falling, partial curve]	
Nc1ccc(C(=O)N/N=C2/CN3CCC2CC3)cc1	2.06 µM [falling, partial curve, poor fit]	
O=C1C2CCCC1C(N1CCCC1)CC2 (stereo not drawn)	23.1 µM [rising, partial curve]	
COC(=O)CCC(=O)c1oc2ccc(Cl)cc2c1NC(=O)CCCN1C(=O)c2ccccc2C1=O	20 µM [rising, single point]	
Cc1ccccc1OCCN=Cc1c(O)n(C)c(=O)n(C)c1=O	4.47 µM [falling, partial curve, poor fit]	

Compounds above with a CF3 group:
SMILES	AC50 [1]	AC50 [2]
C/C(=N\NC(=O)CNc1cccc(C(F)(F)F)c1)c1cccs1	17.8 µM [rising, partial curve, poor fit]	
CNCC[C@H](Oc1ccc(C(F)(F)F)cc1)c1ccccc1	23.1 µM [falling, single point]	

Next structures.

SMILES	AC50 [1]	AC50 [2]
O=C(Cc1ccccc1)OCc1ccccc1	2.06 µM [rising, full curve, poor fit]	
CCC(=Nc1ccc(OC)cc1OC)c1c(O)n(C)c(=O)n(C)c1=O	0.398 µM [falling, partial curve, poor fit]	
Cc1ccc(OCC(=O)N2CCN(CC3CC4C=CC3C4)CC2)cc1 (stereo not drawn)	29.1 µM [rising, single point]	
O=c1[nH]c(=O)n(Cc2ccccc2)c(O)c1/C=C1\C=Nc2ccccc21	31.6 µM [rising, single point]	
Cc1ccc(-c2noc(=O)n2CC(=O)Nc2ccc(S(=O)(=O)NC3CC3)cc2)cc1	3.26 µM [rising, single point]	
O=C(Nc1ccc(Cl)c(Cl)c1)c1ccco1	12.6 µM [falling, partial curve]	
C=CCN1C(=O)NC(=O)/C(=C\c2ccc(-c3ccccc3[N+](=O)[O-])o2)C1=O	25.1 µM [rising, single point]	
CCc1cc2c(s1)N(CC(=O)OC)C(=O)CN=C2c1ccccc1OC	10 µM [rising, partial curve, poor fit]	
C/C(=N\Nc1nc2ccccc2c(=O)n1O)c1ccco1	1.58 µM [falling, full curve, poor fit]	
O=c1[nH]c(=S)[nH]c(O)c1N=Nc1ccc(SC(F)F)cc1	7.08 µM [falling, partial curve]	
Cn1nc(-c2ccc(OCC(=O)N3CCN(Cc4ccccc4)CC3)cc2)c2ccccc2c1=O	5.17 µM [falling, single point]	3.66 µM [rising, partial curve, poor fit]
CCCCCC[N+](=O)[O-]	32.6 µM [rising, single point]	
O=c1ccc2cc(O[C@@H]3O[C@@H](CO)[C@H](O)[C@@H](O)[C@@H]3O)c(O)cc2o1	8.91 µM [rising, partial curve]	
CN1[C@@H]2CC[C@H]1CC(OC1c3ccccc3CCc3ccccc31)C2 (stereo partly drawn)	25.9 µM [falling, single point]	
O=C(Cn1c(=O)oc2ccccc21)Nc1ccc(Br)cc1	3.98 µM [falling, partial curve, poor fit]	
COC(=O)C1=CO[C@@H](C)[C@@H]2CN3CC[C@@]4(C(=O)Nc5ccccc54)[C@@H]3C[C@H]12	6.51 µM [falling, partial curve, poor fit]	
O=C(C1CCC(=O)N1C1CCCCC1)N1CCC2(CC1)OCCO2 (stereo not drawn)	2.24 µM [rising, partial curve, poor fit]	
CCOc1ccc(C(=O)OC2CC3CCC(C2)N3C)cc1 (stereo not drawn)	11.2 µM [rising, partial curve, poor fit]	
COc1ccc(NC(=O)N2CCC3(CC2)OCCO3)c(OC)c1	0.447 µM [rising, full curve, poor fit]	
C=CCN=C(SCC(=O)c1ccc(Cl)cc1)c1c(O)n(C)c(=O)n(C)c1=O	11.2 µM [falling, single point]	
